Laboratory results reported in patent US7795386B2, “Peptides comprising an isoDGR motif” (Molmed SpA, priority 2004, dated 2010).
Part of at least one peptide drawing is inferred or uncertain, most often the ends. Some entries share one result that the patent states for a list of compounds. At least one structure is not confirmed: it was looked up by name or label, or the drawing left a doubt. *1 amine or outer side, *2 acyl side, *3 side chain or, on linkers, in order; H or OH if unused. Where a SMILES comes first, the peptide text is derived from it. Bridges are numbered along the chain shown (N, C = ends). [ ]: non-standard residue; d: D form. d(βAsp) = O=C(O)[C@@H](CC(=O)[*:2])N[*:1]; βAsp = O=C(O)[C@H](CC(=O)[*:2])N[*:1]

Biological target: T1, αvβ3 integrin (Homo sapiens, UniProt P05106+P06756)
T1 construct: purchased Immunological Sciences
Assay: competitive binding of biotinylated NGR-TNF to αvβ3 coated plates
Conditions: biotinylated NGR-TNF 4 μg/ml, αvβ3 coated plates (FIG. 7); read-out: EC50, competition of binding to αvβ3
Procedure: Biotinylated NGR-TNF (4 μg/ml) was mixed with different amount of the indicated peptides and added to αvβ3 coated plates. Binding was detected as described in Materials and Methods. IC50 was determined by nonlinear regression analysis using the GraphPad Prism software. The kinetics of deamidation of FN-I5 was determined by plotting the inhibitory concentration (IC50) versus the incubation times. Bars represent the confidence intervals for each determined IC50.
Human αvβ3, αvβ5, α5β1 and α1β1 integrins solutions, 0.5-2 μg/ml in phosphate buffered saline with Ca^2+ and Mg^2+ (DPBS, Cambrex), were added to 96-well polyvinylchloride microtiter plates (50 μl/well) and left to incubate overnight at 4° C. All subsequent steps were carried out at room temperature. The plates were washed with DPBS and further incubated with DPBS containing 3% BSA (200 μl/well, 1 h). The plates were then washed and filled with CNGRC (SEQ ID NO: 6)—TNF or TNF solutions (5 μg/ml, 50 μl/well in 3% BSA-DPBS) and left to incubate for 2 h. After washing with DPBS, each well was incubated with purified rabbit anti-murine TNF IgGs in 3% BSA-DPBS containing 1% normal goat serum (10 μg/ml, 50 μl/well, 1 h) followed by a goat anti-rabbit peroxidase conjugate in the same buffer (50 μl/well, 1 h). Bound peroxidase was detected by adding o-phenylendiammine chromogenic substrate.
Binding of biotinylated peptides (CNGRC (SEQ ID NO: 6)-TNF1-11, CARAC (SEQ ID NO: 36)-TNF1-11 and FN-I5) to purified integrins was studied using streptavidin-peroxidase conjugate complexes. Complexes were prepared by mixing various quantities (0.5-1 μg) of heat-treated biotinylated peptides in DPBS containing 3% BSA with 0.03 units of streptavidinperoxidase (binding capacity: 1 μg of biotin/unit of streptavidin-peroxidase) (final volume 15 μl). Complexes were diluted in 3% BSA-DPBS (1:500), added to microtiterplates coated with integrins as described above, and incubated for 2 h at room temperature. After washing with DPBS, bound peroxidase was detected by chromogenic reaction as described above. Each assay was carried out in triplicate.
The binding of heat-treated FN-I5, CNGRC (SEQ ID NO: 6)-TNF and short peptides to purified αvβ3, αvβ5, α5β1 and α1β1 integrins was then investigated by direct and competitive ELISA with integrins adsorbed on microtiterplates.

| Structure (SMILES) | EC50 |
| --- | --- |
| CC(C)[C@H](NC(=O)CNC(=O)[C@@H]1CSSC[C@H](N)C(=O)N[C@@H](C(=O)O)CC(=O)NCC(=O)N[C@@H](CCCNC(=N)N)C(=O)N1)C(=O)N[C@@H](CCCNC(=N)N)C(=O)N[C@@H](Cc1ccc(O)cc1)C(=O)O [DisoDGR-pep] (H-C[d(βAsp)]GRCGVRY-OH; disulfide 1-5; N-terminus and C-terminus assumed) | > 10 µM |
| CC(C)[C@H](NC(=O)CNC(=O)[C@@H]1CSSC[C@H](N)C(=O)N[C@@H](CC(N)=O)C(=O)NCC(=O)N[C@@H](CCCNC(=N)N)C(=O)N1)C(=O)N[C@@H](CCCNC(=N)N)C(=O)N[C@@H](Cc1ccc(O)cc1)C(=O)O [NGR-pep, CNGRCGVRY] (H-CNGRCGVRY-OH; disulfide 1-5; N-terminus and C-terminus assumed) | > 10 µM |
| CC(C)[C@H](NC(=O)CNC(=O)[C@@H]1CSSC[C@H](N)C(=O)N[C@@H](CO)C(=O)NCC(=O)N[C@@H](CCCNC(=N)N)C(=O)N1)C(=O)N[C@@H](CCCNC(=N)N)C(=O)N[C@@H](Cc1ccc(O)cc1)C(=O)O [SGR-pep, reference compound] (H-CSGRCGVRY-OH; disulfide 1-5; N-terminus and C-terminus assumed) | > 10 µM |
| CC(C)[C@H](NC(=O)CNC(=O)[C@@H]1CSSC[C@H](N)C(=O)N[C@H](C(=O)O)CC(=O)NCC(=O)N[C@@H](CCCNC(=N)N)C(=O)N1)C(=O)N[C@@H](CCCNC(=N)N)C(=O)N[C@@H](Cc1ccc(O)cc1)C(=O)O [isoDGR-pep] (H-C[βAsp]GRCGVRY-OH; disulfide 1-5 (inferred); N-terminus and C-terminus assumed) | 0.1 µM |

Other lines, results leading:

| EC50 | Structure (SMILES) |
| --- | --- |
| 0.1 µM | CC(C)[C@H](NC(=O)CNC(=O)[C@@H]1CSSC[C@H](N)C(=O)N[C@H](CC(=O)O)C(=O)NCC(=O)N[C@@H](CCCNC(=N)N)C(=O)N1)C(=O)N[C@@H](CCCNC(=N)N)C(=O)N[C@@H](Cc1ccc(O)cc1)C(=O)O [DDGR-pep] (H-C[dD]GRCGVRY-OH; disulfide 1-5 (inferred); N-terminus and C-terminus assumed) |
| > 10 µM | CC(C)[C@H](NC(=O)CNC(=O)[C@@H]1CSSC[C@H](N)C(=O)N[C@@H](CC(=O)O)C(=O)NCC(=O)N[C@@H](CCCNC(=N)N)C(=O)N1)C(=O)N[C@@H](CCCNC(=N)N)C(=O)N[C@@H](Cc1ccc(O)cc1)C(=O)O [DGR-pep] (H-CDGRCGVRY-OH; disulfide 1-5; N-terminus and C-terminus assumed) |
